# The list shows a part of the results.
# B1: PX14404-bvu-534-26-534 (Bacteroides vulgatus) (protein)
# chain: EDPRGKLTPENFFSTQDELNMSIYALYQKVNLSQVYTNMQLPQWQGDDITTNPGSNKQPAAEMDKFAAANNNKGVKDAWNMHYAIVKAANLIIQGASKTPTTQDEINIALGQAKFWRAYAYFTLVRLWGPLPMNLDNVNDDYTKPLSPVEEVYGHIVQDLTEAEAVLPTGYSGSPRFLNGVNVYVTRQAAKSTLAAVYMAMAGWPMNKTEYYAKAAEKAKEVIEGVNRGEYEYKLDKDYKDVYAMSNNYNNETVLGINYSPFVDWAQDSELTSCNQFESLGGWGDAWGEIRFWKEFPDGPRKDATYDPKIRLKDGTLVDWWELKEDGTPVVPEHHPMFSIFSVNWDPASKVNTSAPYDYTKPASQNMCNDHRHRIIRYSEVLLWYAEAKARTGQTDELAFKCLNDVRERAGLEPLTGLSADDLAEAAYKEHGWEVAGYWVALVTRRADQFRMNRLKDTFKERAENTAVEVADGILVKESVEYTNRTWSDNLMYLPYPDMDSQKNPNLVR
# Columns and labels:
# Assay in all cases: glycan array binding signal (z-score within array); higher = stronger binding
# Details in all cases: glycan notation: IUPAC condensed, linker removed
# [1] = target: GlcNAc(b1-3)Gal(b1-4)GlcNAc(b1-3)Gal(b1-4)GlcNAc(b1-3)GalNAc
# In short: (§1)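 Glycan array binding is given as a within-array Z-score, which can be read as non-binding when negative. The arrays, 3228 of them, came from the Consortium for Functional Glycomics database and were retained only where the protein sequence was available. Z-scores were averaged across arrays of the same protein sequence at different concentrations or buffers and across linkers.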
# [2] = target: GlcNAc(b1-3)Gal(b1-4)GlcNAc(b1-3)GalNAc
# In short: as §1
# [3] = target: GlcNAc(b1-3)Gal(b1-4)GlcNAc(b1-3)[GlcNAc(b1-3)Gal(b1-4)GlcNAc(b1-3)]GalNAc
# In short: as §1
# [4] = target: GlcNAc(b1-3)Gal(b1-4)GlcNAc(b1-6)[Gal(b1-3)]GalNAc
# In short: as §1
# [5] = target: GlcNAc(b1-3)Gal(b1-4)GlcNAc(b1-6)[GlcNAc(b1-3)Gal(b1-3)]GalNAc
# In short: as §1
# [6] = target: GlcNAc(b1-3)Gal(b1-4)GlcNAc(b1-6)[GlcNAc(b1-3)]Gal(b1-4)GlcNAc
# In short: as §1
# GlcNAc(b1-3)GalNAc = target: GlcNAc(b1-3)GalNAc
# In short: as §1
# GlcNAc(b1-3)Man = target: GlcNAc(b1-3)Man
# In short: as §1
# [7] = target: GlcNAc(b1-3)[GlcNAc(b1-4)][GlcNAc(b1-6)]GlcNAc
# In short: as §1
# [8] = target: GlcNAc(b1-3)[GlcNAc(b1-6)]Gal(b1-4)GlcNAc
# In short: as §1
# [9] = target: GlcNAc(b1-3)[GlcNAc(b1-6)]GalNAc
# In short: as §1
# [10] = target: GlcNAc(b1-4)Gal(b1-4)GlcNAc
# In short: as §1
# GlcNAc(b1-4)GlcNAc = target: GlcNAc(b1-4)GlcNAc
# In short: as §1
# [11] = target: GlcNAc(b1-4)GlcNAc(b1-4)GlcNAc
# In short: as §1
# [12] = target: GlcNAc(b1-4)GlcNAc(b1-4)GlcNAc(b1-4)GlcNAc(b1-4)GlcNAc
# In short: as §1
# [13] = target: GlcNAc(b1-4)GlcNAc(b1-4)GlcNAc(b1-4)GlcNAc(b1-4)GlcNAc(b1-4)GlcNAc
# In short: as §1
# [14] = target: GlcNAc(b1-4)[GlcNAc(b1-6)]GalNAc
# In short: as §1
# [15] = target: GlcNAc(b1-6)Gal(b1-4)GlcNAc
# In short: as §1
# GlcNAc(b1-6)GalNAc = target: GlcNAc(b1-6)GalNAc
# In short: as §1
# [16] = target: GlcNAc6S(b1-3)Gal(b1-4)GlcNAc
# In short: as §1
# Kdn(a2-3)Gal(b1-3)GalNAc = target: Kdn(a2-3)Gal(b1-3)GalNAc
# In short: as §1
# Kdn(a2-3)Gal(b1-3)GlcNAc = target: Kdn(a2-3)Gal(b1-3)GlcNAc
# In short: as §1
# Kdn(a2-3)Gal(b1-4)Glc = target: Kdn(a2-3)Gal(b1-4)Glc
# In short: as §1
# Kdn(a2-3)Gal(b1-4)GlcNAc = target: Kdn(a2-3)Gal(b1-4)GlcNAc
# In short: as §1
# [17] = target: Kdn(a2-3)Gal(b1-4)[Fuc(a1-3)]GlcNAc
# In short: as §1
# Kdn(a2-6)Gal(b1-4)GlcNAc = target: Kdn(a2-6)Gal(b1-4)GlcNAc
# In short: as §1
# [18] = target: Man(a1-2)Man(a1-2)Man(a1-3)Man
# In short: as §1
# [19] = target: Man(a1-2)Man(a1-2)Man(a1-6)[Man(a1-3)]Man
# In short: as §1
# Man(a1-2)Man(a1-3)Man = target: Man(a1-2)Man(a1-3)Man
# In short: as §1
# [20] = target: Man(a1-2)Man(a1-3)[Man(a1-2)Man(a1-6)]Man
# In short: as §1
# [21] = target: Man(a1-2)Man(a1-3)[Man(a1-2)Man(a1-6)]Man(a1-6)[Man(a1-2)Man(a1-2)Man(a1-3)]Man
# In short: as §1
# [22] = target: Man(a1-2)Man(a1-3)[Man(a1-2)Man(a1-6)]Man(a1-6)[Man(a1-2)Man(a1-2)Man(a1-3)]Man(b1-4)GlcNAc(b1-4)GlcNAc
# In short: as §1
# [23] = target: Man(a1-2)Man(a1-3)[Man(a1-6)]Man(a1-6)[Man(a1-2)Man(a1-3)]Man(b1-4)GlcNAc(b1-4)GlcNAc
# In short: as §1
# [24] = target: Man(a1-2)Man(a1-6)[Man(a1-3)]Man(a1-6)[Man(a1-2)Man(a1-2)Man(a1-3)]Man
# In short: as §1
# [25] = target: Man(a1-2)Man(a1-6)[Man(a1-3)]Man(a1-6)[Man(a1-2)Man(a1-2)Man(a1-3)]Man(b1-4)GlcNAc(b1-4)GlcNAc
# In short: as §1
# Man(a1-3)[Man(a1-6)]Man = target: Man(a1-3)[Man(a1-6)]Man
# In short: as §1
# [26] = target: Man(a1-3)[Man(a1-6)]Man(a1-6)[Man(a1-2)Man(a1-3)]Man(b1-4)GlcNAc(b1-4)GlcNAc
# In short: as §1
binder,measurement,setting,value
B1,glycan array binding signal (z-score),[1],-1.04
same,glycan array binding signal (z-score),[2],0.026
same,glycan array binding signal (z-score),[3],-0.393
same,glycan array binding signal (z-score),[4],-0.575
same,glycan array binding signal (z-score),[5],0.662
same,glycan array binding signal (z-score),[6],-0.966
same,glycan array binding signal (z-score),GlcNAc(b1-3)GalNAc,-0.678
same,glycan array binding signal (z-score),GlcNAc(b1-3)Man,0.749
same,glycan array binding signal (z-score),[7],0.846
same,glycan array binding signal (z-score),[8],-0.97
same,glycan array binding signal (z-score),[9],-0.334
same,glycan array binding signal (z-score),[10],-0.74
same,glycan array binding signal (z-score),GlcNAc(b1-4)GlcNAc,0.217
same,glycan array binding signal (z-score),[11],-0.128
same,glycan array binding signal (z-score),[12],-0.115
same,glycan array binding signal (z-score),[13],-0.963
same,glycan array binding signal (z-score),[14],-0.28
same,glycan array binding signal (z-score),[15],-0.346
same,glycan array binding signal (z-score),GlcNAc(b1-6)GalNAc,0.612
same,glycan array binding signal (z-score),[16],-0.132
same,glycan array binding signal (z-score),Kdn(a2-3)Gal(b1-3)GalNAc,1.92
same,glycan array binding signal (z-score),Kdn(a2-3)Gal(b1-3)GlcNAc,-0.008
same,glycan array binding signal (z-score),Kdn(a2-3)Gal(b1-4)Glc,0.308
same,glycan array binding signal (z-score),Kdn(a2-3)Gal(b1-4)GlcNAc,1.4
same,glycan array binding signal (z-score),[17],-0.295
same,glycan array binding signal (z-score),Kdn(a2-6)Gal(b1-4)GlcNAc,0.367
same,glycan array binding signal (z-score),[18],0.302
same,glycan array binding signal (z-score),[19],1.57
same,glycan array binding signal (z-score),Man(a1-2)Man(a1-3)Man,1.24
same,glycan array binding signal (z-score),[20],-0.867
same,glycan array binding signal (z-score),[21],-0.57
same,glycan array binding signal (z-score),[22],0.651
same,glycan array binding signal (z-score),[23],-0.161
same,glycan array binding signal (z-score),[24],-0.052
same,glycan array binding signal (z-score),[25],0.339
same,glycan array binding signal (z-score),Man(a1-3)[Man(a1-6)]Man,-0.096
same,glycan array binding signal (z-score),[26],0.378

# Pulled one by one from above:
binder,measurement,setting,value
B1,glycan array binding signal (z-score),[26],0.378
same,glycan array binding signal (z-score),Kdn(a2-3)Gal(b1-4)Glc,0.308
same,glycan array binding signal (z-score),[22],0.651

# Source: the supplement of paper PMC8728848
